Data source: PubChem BioAssay AID1053208 (Peter MacCallum Cancer Centre, 2014)
Purpose: 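Synthetic lethal interactions between gene loss and doxorubicin in osteosarcoma cells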 (primary screen). System: mouse osteosarcoma cells, early-passage culture from an engineered mouse model of fibroblastic bone tumour. Reagent: siRNA pool against mouse genes, 40 nM. Time to read-out: about 120 h (48 h before drug, then 72 h with drug). Conditions: doxorubicin 100 nM for 72 h, roughly 30-40% inhibitory dose. Measured: 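Luminescent ATP signal taken as viability with or without 100 nM doxorubicin for 72 h; mean of two wells set against non-targeting siRNA and turned into robust z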. Reading the numbers: viability z-score with doxorubicin: higher = more viable cells under doxorubicin; viability z-score without drug: higher = more viable cells with knock-down alone. Active means: 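a pool counts as active when its viability z-score with doxorubicin is -2 or below and its z-score without drug lies between -2 and 2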.
In all, the deposit lists about 17,000 reagents; below is an unselected part. 788 of all reagents (4.7%) count as active. 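Calls rest on z-score classes alone; an extra cut-off of viability at most 70% of control was not applied to them.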 Further read-outs or replicates are left out here.

Rnf141 scored combined z-score class low cell count without drug only; viability z-score with doxorubicin -1.12; viability z-score without drug -2.19; inactive.
Ctso scored combined z-score class no change with or without drug; viability z-score with doxorubicin 0; viability z-score without drug -0.51; inactive.
Against Matn4, the entry reads combined z-score class no change with or without drug; viability z-score with doxorubicin -1.46; viability z-score without drug 1.18; inactive.
With knock-down of Skint11, the record shows combined z-score class no change with or without drug; viability z-score with doxorubicin -1.01; viability z-score without drug 0.67; inactive.
Against Mbd3 the deposit lists combined z-score class no change with or without drug; viability z-score with doxorubicin 0.45; viability z-score without drug 0; inactive.
Cep19 scored combined z-score class no change with or without drug; viability z-score with doxorubicin 1.12; viability z-score without drug 0; inactive.
Knock-down of Map3k7 came out at: combined z-score class no change with or without drug; viability z-score with doxorubicin -1.35; viability z-score without drug -0.34; inactive.
Against Hlcs, the values are combined z-score class no change with or without drug; viability z-score with doxorubicin 1.12; viability z-score without drug 0.51; inactive.
After knock-down of Rhbdf2 the results were combined z-score class no change with or without drug; viability z-score with doxorubicin -0.22; viability z-score without drug 0.34; inactive.
Against Pkd1, the values are combined z-score class no change with or without drug; viability z-score with doxorubicin 0.45; viability z-score without drug -0.17; inactive.
With knock-down of Med16, the record shows combined z-score class no change with or without drug; viability z-score with doxorubicin 0.11; viability z-score without drug -0.51; inactive.
Pcdhgb4 gave combined z-score class no change with or without drug; viability z-score with doxorubicin -0.9; viability z-score without drug 0.34; inactive.

Limited to “viability z-score without drug” (2 entries from above):
Hlcs = 0.51
Rhbdf2 = 0.34
